Laboratory results taken from doi:10.1101/2021.02.09.430442 (bioRxiv, 2021).
Results are given in words; binding and its absence hold for the method and conditions named. For some assays here: Binding seen in cells or lysates may run through a third protein. Some entries that bind do so weakly or less than the wild type. Tags and fused reporters may be left off the sequences shown.

T1: GST-VAMP4 (human) (UniProt O75379)
T1 sequence: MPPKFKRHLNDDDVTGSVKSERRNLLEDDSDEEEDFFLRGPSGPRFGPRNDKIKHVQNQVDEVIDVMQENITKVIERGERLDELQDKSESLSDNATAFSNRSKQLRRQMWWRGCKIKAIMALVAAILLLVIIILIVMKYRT

T2: GST-Stx12 (human) (UniProt Q86Y82)
T2 sequence: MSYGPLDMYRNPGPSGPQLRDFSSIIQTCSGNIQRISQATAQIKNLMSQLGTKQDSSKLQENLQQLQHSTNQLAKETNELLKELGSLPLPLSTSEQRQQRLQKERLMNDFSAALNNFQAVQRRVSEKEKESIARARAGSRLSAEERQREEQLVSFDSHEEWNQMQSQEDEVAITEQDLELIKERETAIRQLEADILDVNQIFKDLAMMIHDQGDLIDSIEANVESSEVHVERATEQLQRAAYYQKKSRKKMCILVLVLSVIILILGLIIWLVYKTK

B1: Recombinant human Syntaxin12 (protein, UniProt Q86Y82 1-276)
chain: T2 sequence
B2: endogenous SNARE protein Stx6 (protein, UniProt Q9JKK1 1-255)
chain: MSMEDPFFVVKGEVQKAVNTAQGLFQRWTELLQGPSAATREEIDWTTNELRNNLRSIEWDLEDLDETISIVEANPRKFNLDATELSIRKAFITSTRQIVRDMKDQMSASSVQALAERKNRQALLGDSSSQSWNAGVADRYGRLDRELQLANSHFIEEQQAQQQLIVEQQDEQLELVSGSIGVLKNMSQRIGGELEEQAVMLDDFSHELESTQSRLDNVMKKLAKVSHMTSDRRQWCAIAILFAVLVVVLILFLVL

What was measured:
GST-VAMP4 (human) = molecular target: T1, GST-VAMP4 (human); assay: pull-down
GST-Stx12 (human) = molecular target: T2, GST-Stx12 (human); assay: pull-down

Row | binding (GST-VAMP4 (human)) | binding (GST-Stx12 (human)) | Binder
1 | binds |  | B1
2 |  | binds | B2
